Measurements published in the supplement of paper PMC12595434, “Development of retinoid nuclear receptor pathway antagonists through targeting aldehyde dehydrogenase 1A3” (iScience, 2025).
This is one part of the list. Single values of this set are uncertain.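 Many melting curves are irregular; where none melted, Tm was taken as 64 °C.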

Target: UniProt P50993
Experiment: melting temperature shift (DMSO Tm minus MBE1-treated Tm) in cellular thermal proteome profiling; higher = less thermal stabilization by MBE1 (negative = stabilized by MBE1)
Conditions: A375

Structure (SMILES): CCc1cnccc1C(=O)Nc1cc2c(cc1F)NC(=O)CC2
- melting temperature shift (MBE1 concentration: 100 nM): -1.63 °C
- melting temperature shift (MBE1 concentration: 1 uM): -0.69 °C
